Results deposited as PubChem BioAssay AID1224830 (NIAID, 2016).
This is an unselected part of about 18,000 deposited reagents. About 2,900 of them (16%) were called active. 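Calls are made per well; low scores hint the gene aids the LPS response, high scores that it dampens it.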 Repeated entries: four replicate wells of each siRNA pool.

Assay: 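Regulators of TLR4 signalling towards TNF-alpha in macrophage-like cells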 (primary screen)
System: human THP-1 monocytic leukaemia cells, TNF dual-luciferase reporter clone, PMA-differentiated to macrophage-like cells
Knock-down reagent: siRNA pool against human genes, 50 nM
Duration: LPS for 4 h, given about 3 days after siRNA transfection
Treatment: bacterial LPS (TLR4 ligand), 10 ng/ml
Measurement: 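TNF firefly reporter luminescence divided by renilla, normalised to the plate median, then turned into a robust z-score for each replicate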
Scale: TNF reporter robust z-score: higher = stronger TNF reporter response to LPS
Hit rule: 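a well is active when its z-score exceeds 2.8 or falls below -1.5; control wells carry no call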

CABS1 (calcium binding protein, spermatid associated 1) — TNF reporter robust z-score = 0.4; call = inactive
CABS1 (calcium binding protein, spermatid associated 1) — TNF reporter robust z-score = 1.43; call = inactive
CABS1 (calcium binding protein, spermatid associated 1) — TNF reporter robust z-score = 0.37; call = inactive
CABS1 (calcium binding protein, spermatid associated 1) — TNF reporter robust z-score = 1.7; call = inactive
ANKS1A (ankyrin repeat and sterile alpha motif domain containing 1A) — TNF reporter robust z-score = 0.94; call = inactive
ANKS1A (ankyrin repeat and sterile alpha motif domain containing 1A) — TNF reporter robust z-score = -0.65; call = inactive
ANKS1A (ankyrin repeat and sterile alpha motif domain containing 1A) — TNF reporter robust z-score = -0.94; call = inactive
ANKS1A (ankyrin repeat and sterile alpha motif domain containing 1A) — TNF reporter robust z-score = -1.28; call = inactive
EXOC3L4 (exocyst complex component 3 like 4) — TNF reporter robust z-score = 0.16; call = inactive
EXOC3L4 (exocyst complex component 3 like 4) — TNF reporter robust z-score = -0.07; call = inactive
EXOC3L4 (exocyst complex component 3 like 4) — TNF reporter robust z-score = -0.3; call = inactive
EXOC3L4 (exocyst complex component 3 like 4) — TNF reporter robust z-score = -0.43; call = inactive
PMS2 (PMS1 homolog 2, mismatch repair system component) — TNF reporter robust z-score = -1.12; call = inactive
PMS2 (PMS1 homolog 2, mismatch repair system component) — TNF reporter robust z-score = -0.2; call = inactive
PMS2 (PMS1 homolog 2, mismatch repair system component) — TNF reporter robust z-score = 0.08; call = inactive
PMS2 (PMS1 homolog 2, mismatch repair system component) — TNF reporter robust z-score = 0.18; call = inactive
PNISR (PNN interacting serine and arginine rich protein) — TNF reporter robust z-score = -0.79; call = inactive
PNISR (PNN interacting serine and arginine rich protein) — TNF reporter robust z-score = -1.14; call = inactive
PNISR (PNN interacting serine and arginine rich protein) — TNF reporter robust z-score = -0.86; call = inactive
PNISR (PNN interacting serine and arginine rich protein) — TNF reporter robust z-score = -0.05; call = inactive
CFTR (CF transmembrane conductance regulator) — TNF reporter robust z-score = -0.73; call = inactive
CFTR (CF transmembrane conductance regulator) — TNF reporter robust z-score = -0.78; call = inactive
CFTR (CF transmembrane conductance regulator) — TNF reporter robust z-score = -0.53; call = inactive
CFTR (CF transmembrane conductance regulator) — TNF reporter robust z-score = 0.13; call = inactive
YLPM1 (YLP motif containing 1) — TNF reporter robust z-score = -0.72; call = inactive
YLPM1 (YLP motif containing 1) — TNF reporter robust z-score = 0.07; call = inactive
YLPM1 (YLP motif containing 1) — TNF reporter robust z-score = 0.2; call = inactive
YLPM1 (YLP motif containing 1) — TNF reporter robust z-score = 1.24; call = inactive
LRRC59 (leucine rich repeat containing 59) — TNF reporter robust z-score = 1.12; call = inactive
LRRC59 (leucine rich repeat containing 59) — TNF reporter robust z-score = -0.14; call = inactive
LRRC59 (leucine rich repeat containing 59) — TNF reporter robust z-score = 0.09; call = inactive
LRRC59 (leucine rich repeat containing 59) — TNF reporter robust z-score = 1.73; call = inactive
DYNLRB2 (dynein light chain roadblock-type 2) — TNF reporter robust z-score = -1.01; call = inactive
DYNLRB2 (dynein light chain roadblock-type 2) — TNF reporter robust z-score = 0.16; call = inactive
DYNLRB2 (dynein light chain roadblock-type 2) — TNF reporter robust z-score = -0.68; call = inactive
DYNLRB2 (dynein light chain roadblock-type 2) — TNF reporter robust z-score = 0.89; call = inactive
CDAN1 (codanin 1) — TNF reporter robust z-score = 1.63; call = inactive
CDAN1 (codanin 1) — TNF reporter robust z-score = 0.25; call = inactive
CDAN1 (codanin 1) — TNF reporter robust z-score = -0.18; call = inactive
CDAN1 (codanin 1) — TNF reporter robust z-score = 0.79; call = inactive
ADAMTS20 (ADAM metallopeptidase with thrombospondin type 1 motif 20) — TNF reporter robust z-score = -1.05; call = inactive
ADAMTS20 (ADAM metallopeptidase with thrombospondin type 1 motif 20) — TNF reporter robust z-score = -0.92; call = inactive
ADAMTS20 (ADAM metallopeptidase with thrombospondin type 1 motif 20) — TNF reporter robust z-score = -0.31; call = inactive
ADAMTS20 (ADAM metallopeptidase with thrombospondin type 1 motif 20) — TNF reporter robust z-score = 0.54; call = inactive
CT47A2 (cancer/testis antigen family 47 member A2) — TNF reporter robust z-score = 0.38; call = inactive
CT47A2 (cancer/testis antigen family 47 member A2) — TNF reporter robust z-score = -0.71; call = inactive
CT47A2 (cancer/testis antigen family 47 member A2) — TNF reporter robust z-score = -0.04; call = inactive
CT47A2 (cancer/testis antigen family 47 member A2) — TNF reporter robust z-score = -0.27; call = inactive

Reprinted from the listing for reference:
CABS1 (calcium binding protein, spermatid associated 1) — TNF reporter robust z-score = 1.43; call = inactive
CABS1 (calcium binding protein, spermatid associated 1) — TNF reporter robust z-score = 0.37; call = inactive
CABS1 (calcium binding protein, spermatid associated 1) — TNF reporter robust z-score = 1.7; call = inactive
